# The supplement of paper PMC3334620
# In all, about 33,000 sequences were measured (“E-score (-0.5 to 0.5)”: median about -8e-05, highest 2% from about 0.23 on). The list shows a part of the results.
# Target: T1, Nrg2 (UniProt P38082)
# T1 sequence: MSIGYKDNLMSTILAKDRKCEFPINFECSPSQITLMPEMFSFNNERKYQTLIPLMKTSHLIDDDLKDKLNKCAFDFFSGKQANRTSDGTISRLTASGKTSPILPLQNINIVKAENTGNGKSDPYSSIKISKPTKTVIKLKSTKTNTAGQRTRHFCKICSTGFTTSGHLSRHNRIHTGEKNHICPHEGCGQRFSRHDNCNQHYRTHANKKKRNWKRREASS
# Experiment: PBM E-score (8-mer binding enrichment) (E-score (-0.5 to 0.5)); higher = stronger / more preferred TF binding
# Conditions: protein concentration: 100 nM; construct: GST-full length
# Summary of the method: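 Universal all-10-mer Agilent arrays, fresh or stripped once, were converted to double-stranded form by primer extension. GST-tagged yeast transcription factors from PURExpress in vitro transcription/translation, full-length or DNA-binding domain only, were applied at about 100-200 nM and detected with fluorescent anti-GST. After masliner normalisation, the Universal PBM Analysis Suite scored each ungapped eight-base word together with its reverse complement by E-score.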
row,Sequence,PBM E-score
1,CGGGGACC,0.102
2,CTATTGAA,0.0144
3,ATATTCTG,0.0955
4,TCATACAA,0.138
5,CCAGCTCG,0.0153
6,CACTGGCA,-0.00684
7,CGGAGGCC,-0.162
8,CTTACGCA,-0.08
9,AATACGTC,0.145
10,CTAAGGTA,0.00228
11,ATTAGCGA,0.0813
12,ATTACATC,0.0257
13,ACTTGTCC,0.0857
14,AGATAAGG,-0.0277
15,TAGTGACA,0.145
16,GGTAGCTA,-0.233
17,ACAAGCCT,-0.131
18,AGGTATAT,0.0308
19,GTCTGCAA,-0.116
20,AGCGACCC,0.00901
21,ATTGTCAG,0.144
22,AGGGGATC,0.0237
23,ACTGTACC,-0.0875
24,CGTAATCC,-0.0966
25,GAGAGACA,0.00612

row,Sequence,PBM E-score
1,AGCCGCAG,-0.132
2,CGTACAGA,-0.05
3,GACGAATA,0.157
4,AAGGAATG,0.0282
5,AATATGAG,-0.0197
6,ATCTTCAA,0.132
7,CAGACTCG,-0.115
8,ACATTGAA,0.029
9,ATCTAGCC,-0.0644
10,GGGGCGCA,0.0245
11,ACACGCTC,0.0681
12,CCGCACCG,0.0134
13,ATTAGCTC,-0.0144
14,ATAACCTA,-0.0799
15,CTTGCCGA,-0.043
16,ACCTCAGC,-0.00482
17,ACCGTGAA,-0.0653
18,AGCCTACA,-0.167
19,AGGGCATG,0.0783
20,CACTCGCC,0.116
21,GGGCCTGA,-0.147
22,CCGGTACA,0.0503
23,CAACAGCC,0.00168
24,CACGAAGA,0.113
25,ATGTCATC,0.0149

row,Sequence,PBM E-score
1,ACAGGTGC,-0.0434
2,ACGTAGTA,-0.0284
3,ACGGGCGA,-0.0214
4,AGTGCCAG,-0.0144
5,ACTGATGG,-0.22
6,GGCCAGAA,0.103
7,CAGACGAA,0.252
8,CGCTTCGA,0.00635
9,CCGAGATA,0.191
10,CGAGCAAA,0.0887
11,AAACCGCG,0.266
12,TCCCGGGA,0.0255
13,ACTACTTA,-0.08
14,CTCTGGAA,-0.131
15,ACAACAAA,0.036
16,CCTCGGCA,-0.0447
17,AAGCACCG,-0.13
18,GCGCCTGA,0.15
19,CACTGGAC,0.0413
20,ATAGGGAT,0.0573
21,GTCACAAC,0.0831
22,CGACGGAA,0.0399
23,GCGAGGAC,-0.127
24,CTTGCTTC,0.00315
25,AGTTCATA,0.109

# Individual results from above:
# CCTCGGCA – PBM E-score: -0.0447
# GGCCAGAA – PBM E-score: 0.103
# CGCTTCGA – PBM E-score: 0.00635
# CCGAGATA – PBM E-score: 0.191
# AGTGCCAG – PBM E-score: -0.0144
# CGACGGAA – PBM E-score: 0.0399
# ACTGATGG – PBM E-score: -0.22

# (listing goes on)

row,Sequence,PBM E-score
1,AGAAATCA,0.112
2,CCCCTAGA,0.117
3,CCACACAC,0.0611
4,CTCCGGAC,-0.0445
5,AACGCGCG,0.319
6,GGCAGCGA,-0.112
7,GGGATACA,0.0129
8,ATGGAAAT,0.141
9,GGTCTCGA,0.0782
10,GACGGTCA,-0.11
11,ACCGAGGC,-0.284
12,CTACGCAA,-0.0895
13,CCTAGCAG,-0.126
14,GTTGGTTA,0.0754
15,AGTTTACG,-0.0635
16,AGTCTTAT,-0.0873
17,CACCTGGG,-0.0933
18,AGTGATGG,-0.138
19,AGCCACGA,-0.0898
20,ATGGTAAC,0.166
21,CCATCGAC,0.0341
22,GAACGTCC,-0.0192
23,AACTATGA,0.0466
24,TAGAAAAA,-0.0763
25,AGGCCATA,-0.0391

row,Sequence,PBM E-score
1,ACTTAGTG,-0.0564
2,ATCGATAC,0.133
3,AGGATAAC,-0.135
4,GCCACGTA,-0.112
5,CCCGCAGC,-0.277
6,GGGAAATA,0.162
7,CTATCTGC,-0.0656
8,GGCAGTTA,-0.128
9,CAACGGCA,0.0862
10,GATCGCAA,0.224
11,CGCGGTCC,0.0454
12,CATGCTTC,-0.0521
13,AAATGAAC,0.0486
14,GACAGATA,0.173
15,GTCATTAA,0.25
16,CAGCTACG,-0.149
17,CGTTGGTA,-0.115
18,CTGTATTA,0.147
19,AGTCTCAT,-0.0971
20,CCCAGTTA,-0.0575
21,CACATGTA,0.111
22,ACCGCCCG,-0.137
23,AAGTCGGG,-0.101
24,ATAATATC,0.105
25,GACTTTGA,-0.0905

row,Sequence,PBM E-score
1,CCCAGTGA,-0.167
2,CTATTGGA,-0.00122
3,CTAGGGAA,-0.00067
4,CTCGACAC,-0.0495
5,ACATGCAC,0.0557
6,GACAGCCC,-0.099
7,CCGTAGGC,-0.184
8,GTCACCGA,0.102
9,CTGATTAC,0.133
10,GGATAGTA,0.177
11,TATTAGCA,0.18
12,ATACGGCC,0.0131
13,CGGACATA,0.0251
14,CCCCATCG,-0.0641
15,GAGATGAC,0.0187
16,GGTCGATA,-0.0501
17,CGACTCCA,-0.157
18,GTGGTGCA,-0.162
19,GCCGATCC,-0.11
20,GCCAAATA,0.0814
21,AACCAGAC,-0.0716
22,CCATCTGC,0.083
23,AGTGCAAC,0.0143
24,GTGTGGTA,-0.0596
25,GTGCTCGA,0.00554

row,Sequence,PBM E-score
1,AAACGCAA,0.161
2,GAGCATCC,-0.0314
3,CGCAATAC,0.231
4,CCGTCCAG,-0.081
5,CCGCGTAG,0.00103
6,TAACGCAA,0.0924
7,GATGATGC,-0.12
8,GTGCCATA,-0.145
9,GCTAAGCC,-0.151
10,ACACAGGC,0.0691
11,GAACGTTA,-0.19
12,GGATACTA,0.0405
13,AAGAGTGG,-0.194
14,GGAACCAA,0.118
15,GATCCCCC,-0.35
16,GCGCATAC,0.094
17,CATTACGG,-0.035
18,GGTCTAGA,-0.109
19,CACGGTAA,-0.109
20,CCGATATA,0.0102
21,GTTCCCAA,-0.104
22,CGCTAGCC,-0.255
